Assay results from patent publication US8017315B2, “Mitochondrial localization of MUC1” (Dana Farber Cancer Institute, Inc., priority 2005, dated 2011).
At least one compound was matched to its structure with a doubt left.

Test system: localization of MUC1-C to mitochondria
Experiment: Immunoblot of purified mitochondria for MUC1 targeting
Assay type: cell-based, Human
Conditions: HCT116/MUC1 cells; PP2 or GA for 1 hour, then HRG
Procedure: Cell culture. Human HCT116/vector, HCT116/MUC1, HCT116/MUC1(Y46F) (Ren et al. (2004) Cancer Cell 5:163-175) and HCT116/MUC1-CD (Huang et al. (2003) Cancer Biol. Ther. 2:702-706) cells were cultured in Dulbecco's Modified Eagle Medium/F12 with 10% heat-inactivated fetal bovine serum (HI-FBS), 100 units/ml penicillin, […], and 2 mM L-glutamine. Human HeLa cervical carcinoma, 293 embryonic kidney and MCF-7 breast cancer cells were grown in Dulbecco's Modified Eagle Medium containing 10% HI-FBS, antibiotics and L-glutamine. Human ZR-75-1 breast cancer cells were cultured in RPMI1640 medium containing 10% HI-FBS, antibiotics and L-glutamine. Cells were grown to 60% confluence and then maintained overnight in medium with 0.1% serum before treatment with heregulin (HRG; 20 ng/ml; Calbiochem-Novabiochem, LaJolla, Calif.).
Immunoprecipitation and immunoblotting. […] Reactivity was detected with horseradish peroxidase-conjugated secondary antibodies and chemiluminescence (PerkinElmer Life Sciences, Boston, Mass.). Intensity of the signals was determined by densitometric scanning. Statistical significance was determined by the Student's t-test. […]

SMILES: COC1=C2C[C@@H](C)C[C@H](OC)[C@H](O)[C@@H](C)/C=C(\C)[C@H](OC(N)=O)[C@@H](OC)/C=C\C=C(/C)C(=O)NC(=CC1=O)C2=O [GA, geldanamycin]
- HRG-induced targeting of MUC1 to mitochondria in presence of inhibitor: blocked HRG-induced targeting of MUC1 to mitochondria
